No constants are given. Whether binding was seen depends on the method and setting. Some binding calls cover weakened binding; strength is not graded here.
How the values were obtained:
[1] = molecular target: recombinant cynomolgus GPC3 (ACROBiosystems) (cynomolgus monkey); assay: SPR
[2] = molecular target: recombinant human GPC3 (ACROBiosystems) (human) (UniProt P51654); assay: SPR

By UniProt entry, the sequences of proteins in these tests, tags left out. Where a name states a change or a piece, a line headed by the entry shows the natural chain unless it says otherwise.
UniProt P51654: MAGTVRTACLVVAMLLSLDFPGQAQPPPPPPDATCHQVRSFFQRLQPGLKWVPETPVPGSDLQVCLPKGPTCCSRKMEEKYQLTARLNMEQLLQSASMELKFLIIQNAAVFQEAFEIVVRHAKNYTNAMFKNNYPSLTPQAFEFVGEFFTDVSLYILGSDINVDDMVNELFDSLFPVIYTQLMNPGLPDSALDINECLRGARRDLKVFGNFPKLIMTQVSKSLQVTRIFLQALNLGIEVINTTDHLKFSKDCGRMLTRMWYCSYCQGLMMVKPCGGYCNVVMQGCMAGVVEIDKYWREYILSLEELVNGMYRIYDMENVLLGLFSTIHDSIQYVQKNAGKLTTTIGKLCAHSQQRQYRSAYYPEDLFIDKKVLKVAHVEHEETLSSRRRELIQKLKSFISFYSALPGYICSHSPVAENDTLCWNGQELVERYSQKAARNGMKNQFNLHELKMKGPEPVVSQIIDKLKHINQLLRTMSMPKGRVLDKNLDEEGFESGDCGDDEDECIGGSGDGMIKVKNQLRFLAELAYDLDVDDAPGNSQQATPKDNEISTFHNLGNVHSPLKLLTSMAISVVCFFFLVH

binding [1]: binds
binding [2]: binds
B1: v40209 (H18L6_LC_G34T mAb) (antibody, human IgG1, kappa, V domains shown)
VH: QVQLVQSGAEVKKPGSSVKVSCKASGYTFTDYEMHWVKQAPGHGLEWIGAIDPETGDTAYNQKFKGKATLTADTSTSTAYMELSSLRSEDTAVYYCTRYFSFAYWGQGTLVTVSS
VL: EIVLTQSPATLSLSPGERATISCRSSQSLRHSNTNTYLQWYQQKPGQAPRLLIYKVSNRFSGVPARFSGSGSGTDFTLTISSLEPEDFAVYFCYQSKHVPYTFGGGTKVEIKR

Source: US20250295799A1, “ANTIBODY-DRUG CONJUGATES TARGETING GLYPICAN-3 AND METHODS OF USE” (Zymeworks BC Inc., priority 2022, published 2025)
